Data on 4 molecules can be found in publication PMC11514477.

For assay [1], the target named is T1, Mcm4 (subunit of the Mcm DNA helicase complex) (mouse (endogenous in C2C12)) (UniProt P49717).
T1 sequence: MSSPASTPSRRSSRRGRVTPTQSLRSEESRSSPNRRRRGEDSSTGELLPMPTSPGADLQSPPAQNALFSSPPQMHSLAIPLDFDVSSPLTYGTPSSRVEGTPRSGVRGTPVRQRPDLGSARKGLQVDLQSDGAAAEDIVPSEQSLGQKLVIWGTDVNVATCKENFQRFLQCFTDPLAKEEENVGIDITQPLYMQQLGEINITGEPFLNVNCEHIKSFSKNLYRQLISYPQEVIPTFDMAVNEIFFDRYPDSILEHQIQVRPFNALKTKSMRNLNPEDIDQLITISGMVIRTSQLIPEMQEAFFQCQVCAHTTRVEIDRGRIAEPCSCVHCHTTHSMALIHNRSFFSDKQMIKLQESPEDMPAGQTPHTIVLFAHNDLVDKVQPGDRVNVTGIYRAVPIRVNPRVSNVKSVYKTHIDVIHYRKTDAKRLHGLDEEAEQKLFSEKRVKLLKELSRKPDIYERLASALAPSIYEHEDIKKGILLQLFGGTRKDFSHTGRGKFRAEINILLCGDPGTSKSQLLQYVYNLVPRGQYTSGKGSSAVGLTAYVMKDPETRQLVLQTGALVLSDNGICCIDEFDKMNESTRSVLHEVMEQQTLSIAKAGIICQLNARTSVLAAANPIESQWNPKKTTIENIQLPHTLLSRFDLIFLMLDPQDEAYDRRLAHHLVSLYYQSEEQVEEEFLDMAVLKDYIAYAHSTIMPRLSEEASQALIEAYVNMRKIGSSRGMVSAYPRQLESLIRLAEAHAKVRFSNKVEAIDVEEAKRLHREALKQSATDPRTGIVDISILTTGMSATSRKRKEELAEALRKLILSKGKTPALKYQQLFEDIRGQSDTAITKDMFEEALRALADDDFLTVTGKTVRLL
In words: co-IP; lysates of C2C12 cells transfected with macroH2A-GFP vectors and synchronized in G1/S; endogenous Mcm4 precipitated with anti-Mcm4 on Protein G agarose beads, 2 h; anti-MIN antibody as negative control.

In the next assay the target is macroH2A1.1-GFP. Briefly: co-IP; lysates of C2C12 cells transfected with macroH2A-GFP vectors, synchronized in G1/early S by double thymidine arrest, 48 h after transfection; lysis buffer 20 mM Tris-HCl pH 8, 150 mM NaCl, 0.5 mM EDTA, 0.5% NP-40; GFP-binder (nanobody) beads, 4°C, 90 min; western blot for GFP and Mcm …. Background: A western blot detects proteins with antibodies after separation by electrophoresis.

Assay [2] has as its target macroH2A1.1-F192V (GFP-tagged). The assay is described as above.

These are yes or no findings as the source states them, for the method shown. Binding seen in cells or lysates may run through a third protein. Binding can be weak; no strength is given.

As to macroH2A1.1-GFP, the binding result in assay [1] is “binds”.

B1: Mcm4 (subunit of the Mcm DNA helicase complex) (protein, UniProt P49717 1-862)
chain: T1 sequence
Turning to B1, in the assay with macroH2A1.1-GFP, the binding entry is “binds”.

B2: Mcm5 (subunit of the Mcm DNA helicase complex) (protein, UniProt P49718 1-734)
chain: MSGFDDPGIFYSDSFGGDPGAEEGQARKSQLQRRFKEFLRQYRVGTDRTGFTFKYRDELKRHYNLGEYWIEVEMEDLASFDEELADHLHKQPAEHLQLLEEAAKEVADEVTRPRPAGDELLQDIQVMLKSDASPSSIRILKSDMMSHLVKIPGIIISASAVRAKATRISIQCRSCHNTLTNIAMRPGLEGYALPRKCNMDQAGRPKCPLDPYFIMPDKCKCVDFQTLKLQELPDAVPHGEMPRHMQLYCDRYLCDKVVPGNRVTIMGIYSIKKFGLNPSKGRDRVGVGIRSSYIRVLGIQVDTDGSGRSFAGSVSPQEEEEFRRLAALPNIYELISKSISPSIFGGMDMKKAIACLLFGGSRKRLPDGLTRRGDINLLMLGDPGTAKSQLLKFVEKCSPIGVYTSGKGSSAAGLTASVIRDPSSRNFIMEGGAMVLADGGVVCIDEFDKMREDDRVAIHEAMEQQTISIAKAGITTTLNSRCSVLAAANSVFGRWDETKGEDNIDFMPTILSRFDMIFIVKDEHNEERDMMLAKHVMTLHVSALTQTQAVEGEIDLAKMKKFIAYCRARCGPRLSAEAAEKLKNRYIIMRSGARQHERDSDRRSSIPITVRQLEAIVRIAEALSKMKLQPFATEADVEEALRLFQVSTLDAALSGNLSGVEGFTTQEDQEMLSRIEKQLKRRFAIGSQVSEHSIVQDFTKQKYPEHAIRKVLQLMLRRGEIQHRMQRKVLYRLK
B2: in the assay with macroH2A1.1-GFP, the binding result was “binds”.

B3: Mcm3 (subunit of the Mcm DNA helicase complex) (protein, UniProt P25206 1-812)
chain: MAGTVVLDDVELREAQRDYLDFLDDEEDQGIYQNKVRELISDNQYRLIVSVNDLRRKNEKRANRLLNNAFEELVAFQRALKDFVASIDATYAKQYEEFYIGLEGSFGSKHVSPRTLTSCFLSCVVCVEGIVTKCSLVRPKVVRSVHYCPATKKTIERRYSDLTTLVAFPSSSVYPTKDEENNPLETEYGLSVYKDHQTITIQEMPEKAPAGQLPRSVDVILDDDLVDKVKPGDRIQVVGTYRCLPGKKGCYTSGTFRTVLIACNVKQMSKDIQPAFSADDIAKIKKFSKTRSKDVFEQLARSLAPSIHGHDYVKKAILCLLLGGVERELENGSHIRGDINILLIGDPSVAKSQLLRYVLCTAPRAIPTTGRGSSGVGLTAAVTTDQETGERRLEAGAMVLADRGVVCIDEFDKMSDMDRTAIHEVMEQGRVTIAKAGIHARLNARCSVLAAANPVYGRYDQYKTPMENIGLQDSLLSRFDLLFIMLDQMDPEQDREISDHVLRMHQYRAPGEQDGDALPLGSSVDILATDDPDFTQDDQQDTRIYEKHDSLLHGTKKKKEKMVSAAFMKKYIHVAKIIKPTLTQESAAYIAEEYSRLRSQDSMSSDTARTSPVTARTLETLIRLATAHAKARMSKTVDLQDAEEAVELVQYAYFKKVLEKEKKRKKASEDESDLEDEEEKSQEDTEQKRKRRKTHAKDGESYDPYDFSEAETQMPQVHTPKTDDSQEKTDDSQETQDSQKVELSEPRLKAFKAALLEVFQEAHEQSVGMLHLTESINRNREEPFSSEEIQACLSRMQDDNQVMVSEGIVFLI
Take B3: the binding result with macroH2A1.1-GFP was “binds”; in assay [2], “binds weakly”.
